Results reported in patent publication US12618070B2, “Increasing Atoh1 life to drive sensorineural hair cell differentiation” (Massachusetts Eye and Ear Infirmary, priority 2014, dated 2026).

Tested on: FLAG-HA-Atoh1 293T cells
Experiment: Cycloheximide chase, half-life of Atoh1 by Western blotting and densitometry
Format: cell-based
Description: FIGS. 1A-B. Atoh1 is a short-lived protein. (A) FLAG-HA-Atoh1 293T cells were treated with cycloheximide (100 ug/ml) and harvested at the indicated times. Lysates were processed for Western blotting with FLAG antibody (Atoh1) or β-actin antibody (loading control). Labels indicate the time of chase. (B) Protein half-lives based on densitometry. The ratio of Atoh1 to β-actin was plotted after normalizing to the initial ratio set to 100. Error bars indicate SEM.
HEK cells were transfected with either FLAG-Atoh1 (wild-type), or indicated mutant FLAG-Atoh1 plasmids (1 μg/ml) using Lipofectamine 2000 (3 μl per 1 μg of cDNA, Invitrogen). Forty-eight hours after transfection, 100 μg/ml cycloheximide (Sigma) was added to block protein synthesis. Cells were harvested at 0, 30, 60, 120, and 240 minutes. Equal amounts of protein from each treatment were taken for Western blotting. Protein bands were quantified by densitometry. The half-lives of indicated proteins were calculated using GraphPad Prism 6 software and a one-phase exponential-decay model.
To determine the half-life of Atoh1, we used cycloheximide to prevent new protein synthesis and followed the time course of disappearance of previously synthesized Atoh1 by Western blotting during a chase period. We transfected 293T cells with FLAG-HA-Atoh1 and treated with cycloheximide at 48 hours after transfection.

B1: Atoh1: wild-type Atoh1 protein, FLAG- or FLAG-HA-tagged, expressed in HEK/293T cells (protein)
chain: MSRLLHAEEWAEVKELGDHHRQPQPHHLPQPPPPPQPPATLQAREHPVYPPELSLLDSTDPRAWLAPTLQGICTARAAQYLLHSPELGASEAAAPRDEVDGRGELVRRSSGGASSSKSPGPVKVREQLCKLKGGVVVDELGCSRQRAPSSKQVNGVQKQRRLAANARERRRMHGLNHAFDQLRNVIPSFNNDKKLSKYETLQMAQIYINALSELLQTPSGGEQPPPPPASCKSDHHHLRTAASYEGGAGNATAAGAQQASGGSQRPTPPGSCRTRFSAPASAGGYSVQLDALHFSTFEDSALTAMMAQKNLSPSLPGSILQPVQEENSKTSPRSHRSDGEFSPHSHYSDSDEAS
modifications: left off: large carriers
notes: wild-type Atoh1 protein, FLAG- or FLAG-HA-tagged, expressed in HEK/293T cells
time by which pre-existing Atoh1 was completely degraded (after inhibition of new protein synthesis with cycloheximide): ≤ 2 h
half-life of Atoh1 (cycloheximide 100 ug/ml, densitometry in three experiments): 35.31 min
